# Data from article PMC12199328.
# No constants are given. Whether binding was seen depends on the method and setting. Binding seen in cells or lysates may run through a third protein. Here binding means that the protein was enriched with, or labelled near, the bait; the list need not be complete. Where a sequence is shown, tags or fusion partners need not be part of it.
# T1: Flag-PPARα (peroxisome proliferator-activated receptor alpha) (UniProt Q07869)
# T1 sequence: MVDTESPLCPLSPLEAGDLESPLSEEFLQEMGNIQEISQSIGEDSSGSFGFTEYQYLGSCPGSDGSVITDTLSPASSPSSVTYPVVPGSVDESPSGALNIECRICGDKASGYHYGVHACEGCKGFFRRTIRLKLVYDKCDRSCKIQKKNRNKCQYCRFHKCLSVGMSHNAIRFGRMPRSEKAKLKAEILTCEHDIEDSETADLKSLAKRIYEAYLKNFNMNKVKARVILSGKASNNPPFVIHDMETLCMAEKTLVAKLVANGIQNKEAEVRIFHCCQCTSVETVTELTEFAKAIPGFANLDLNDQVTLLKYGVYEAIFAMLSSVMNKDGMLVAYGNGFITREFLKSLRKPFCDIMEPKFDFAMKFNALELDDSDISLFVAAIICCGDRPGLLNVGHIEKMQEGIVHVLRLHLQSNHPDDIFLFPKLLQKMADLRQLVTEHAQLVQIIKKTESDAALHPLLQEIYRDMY
# B1: UCK2 (enzyme, UniProt Q9BZX2 1-261)
# chain: MAGDSEQTLQNHQQPNGGEPFLIGVSGGTASGKSSVCAKIVQLLGQNEVDYRQKQVVILSQDSFYRVLTSEQKAKALKGQFNFDHPDAFDNELILKTLKEITEGKTVQIPVYDFVSHSRKEETVTVYPADVVLFEGILAFYSQEVRDLFQMKLFVDTDADTRLSRRVLRDISERGRDLEQILSQYITFVKPAFEEFCLPTKKYADVIIPRGADNLVAINLIVQHIQDILNGGPSKRQTNGCLNGYTPSRKRQASESSSRPH
# B2: HMMR (protein, UniProt O75330 1-724)
# chain: MSFPKAPLKRFNDPSGCAPSPGAYDVKTLEVLKGPVSFQKSQRFKQQKESKQNLNVDKDTTLPASARKVKSSESKESQKNDKDLKILEKEIRVLLQERGAQDRRIQDLETELEKMEARLNAALREKTSLSANNATLEKQLIELTRTNELLKSKFSENGNQKNLRILSLELMKLRNKRETKMRGMMAKQEGMEMKLQVTQRSLEESQGKIAQLEGKLVSIEKEKIDEKSETEKLLEYIEEISCASDQVEKYKLDIAQLEENLKEKNDEILSLKQSLEENIVILSKQVEDLNVKCQLLEKEKEDHVNRNREHNENLNAEMQNLKQKFILEQQEREKLQQKELQIDSLLQQEKELSSSLHQKLCSFQEEMVKEKNLFEEELKQTLDELDKLQQKEEQAERLVKQLEEEAKSRAEELKLLEEKLKGKEAELEKSSAAHTQATLLLQEKYDSMVQSLEDVTAQFESYKALTASEIEDLKLENSSLQEKAAKAGKNAEDVQHQILATESSNQEYVRMLLDLQTKSALKETEIKEITVSFLQKITDLQNQLKQQEEDFRKQLEDEEGRKAEKENTTAELTEEINKWRLLYEELYNKTKPFQLQLDAFEVEKQALLNEHGAAQEQLNKIRDSYAKLLGHQNLKQKIKHVVKLKDENSQLKSEVSKLRCQLAKKKQSETKLQEELNKVLGIKHFDPSKAFHHESKENFALKTPLKEGNTNCYRAPMECQESWK
# B3: FHL1 (protein, UniProt Q13642 1-323)
# chain: MAEKFDCHYCRDPLQGKKYVQKDGHHCCLKCFDKFCANTCVECRKPIGADSKEVHYKNRFWHDTCFRCAKCLHPLANETFVAKDNKILCNKCTTREDSPKCKGCFKAIVAGDQNVEYKGTVWHKDCFTCSNCKQVIGTGSFFPKGEDFYCVTCHETKFAKHCVKCNKAITSGGITYQDQPWHADCFVCVTCSKKLAGQRFTAVEDQYYCVDCYKNFVAKKCAGCKNPITGKRTVSRVSHPVSKARKPPVCHGKRLPLTLFPSANLRGRHPGGERTCPSWVVVLYRKNRSLAAPRGPGLVKAPVWWPMKDNPGTTTASTAKNAP
# B4: USP4 (endogenous, HEK293T; hit of the IP-MS) (enzyme, UniProt Q13107 1-963)
# chain: MAEGGGCRERPDAETQKSELGPLMRTTLQRGAQWYLIDSRWFKQWKKYVGFDSWDMYNVGEHNLFPGPIDNSGLFSDPESQTLKEHLIDELDYVLVPTEAWNKLLNWYGCVEGQQPIVRKVVEHGLFVKHCKVEVYLLELKLCENSDPTNVLSCHFSKADTIATIEKEMRKLFNIPAERETRLWNKYMSNTYEQLSKLDNTVQDAGLYQGQVLVIEPQNEDGTWPRQTLQSKSSTAPSRNFTTSPKSSASPYSSVSASLIANGDSTSTCGMHSSGVSRGGSGFSASYNCQEPPSSHIQPGLCGLGNLGNTCFMNSALQCLSNTAPLTDYFLKDEYEAEINRDNPLGMKGEIAEAYAELIKQMWSGRDAHVAPRMFKTQVGRFAPQFSGYQQQDSQELLAFLLDGLHEDLNRVKKKPYLELKDANGRPDAVVAKEAWENHRLRNDSVIVDTFHGLFKSTLVCPECAKVSVTFDPFCYLTLPLPLKKDRVMEVFLVPADPHCRPTQYRVTVPLMGAVSDLCEALSRLSGIAAENMVVADVYNHRFHKIFQMDEGLNHIMPRDDIFVYEVCSTSVDGSECVTLPVYFRERKSRPSSTSSASALYGQPLLLSVPKHKLTLESLYQAVCDRISRYVKQPLPDEFGSSPLEPGACNGSRNSCEGEDEEEMEHQEEGKEQLSETEGSGEDEPGNDPSETTQKKIKGQPCPKRLFTFSLVNSYGTADINSLAADGKLLKLNSRSTLAMDWDSETRRLYYDEQESEAYEKHVSMLQPQKKKKTTVALRDCIELFTTMETLGEHDPWYCPNCKKHQQATKKFDLWSLPKILVVHLKRFSYNRYWRDKLDTVVEFPIRGLNMSEFVCNLSARPYVYDLIAVSNHYGAMGVGHYTAYAKNKLNGKWYYFDDSNVSLASEDQIVTKAAYVLFYQRRDDEFYKTPSLSSSGSSDGGTRPSSSQQGFGDDEACSMDTN
# Target: T1, Flag-PPARα (peroxisome proliferator-activated receptor alpha)
# Test: affinity purification with mass spectrometry; Flag-PPARα overexpressed in HEK293T cells; immunoprecipitation with Anti-Flag and Anti-IgG magnetic beads, then mass spectrometry (IP-MS, n = 2)
row,binding,Binder
1,binds,B1
2,binds,B2
3,binds,B3
4,binds,B4
